Experimental findings from article PMC5983586 are described below.

These are yes or no findings as the source states them, for the method shown. In cells and extracts the contact can be indirect. Some binding calls cover weakened binding; strength is not graded here. Sequences can lack the tags named with a protein.

Assay [1] addresses Bovine PLIN2 BiFC fusion (PLIN2-VN173 or PLIN2-VC155) (bovine) (UniProt Q9TUM6). Briefly: split reporter; BiFC (Venus VN173 + VC155) in transfected bovine adipocytes; fluorescence microscopy 24 h after transfection.
For assay [2] the target is unchanged. Briefly: split reporter; BiFC-FC: Venus fluorescence of co-transfected bovine adipocytes read by flow cytometry 24 h after transfection (excitation 488 nm, FL1 530 nm, 8 x 10^4 cells per sample).

B1: Bovine PLIN2 BiFC fusion (PLIN2-VN173 or PLIN2-VC155) (protein, UniProt Q9TUM6-1 1-450)
chain: MASVAVEPQLSVVTRVANLPLVSSTYDLVSSAYISRKDQYPYLKSLCEMAEKGMKTITSVAVTSALPIIQKLEPQIAVANTYACKGLDRIEEKLPILNQPTNQVVANAKGAMTGAKDAVTTTVTGAKDSVASTITGVVDRTKGAVTGSVEKTKSVVSGSINTVLRSRVMQLMSSGVENALTKSELLVDQYLPLTKDELEKEAKKVEGFDMVQKPSYYVRLGSLSTKLRSRAYQQALCRVEEAKRKGQETISQLHSAFNLSELARKNVHNANQKIQDAQDKLYLSWLEWKRSIGYDDTDESHCAEHIESRTLAIARNLTQQLQTMCHTLLSNIQGLPQNIQDRANHLGVMAGDIYSVFRNAASFKEVSDGLLASSKGQLQKMKESLDDVMDYLVNNTPLNWLVGPFYPQVTESESAQAPGTTRRPGRWSRKHPKPVPVSNAEGSQPDDSSS
For the molecule B1, the binding result was “binds weakly” in assay [1] and “binds” in assay [2].
